# Laboratory results: the supplement of paper PMC8728848
# The other results are listed elsewhere or left out.
# What was measured:
# Assay in all cases: glycan array binding signal (z-score within array); higher = stronger binding
# Conditions in all cases: glycan notation: IUPAC condensed, linker removed
# [1] = target: Neu5Ac(a2-3)GalNAc
# How it was run: (§1)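 Glycan array data were curated from 3228 arrays in the Consortium for Functional Glycomics database and kept only where the protein sequence was available. Glycan names were converted to IUPAC-condensed notation, and columns mapping to the same glycan were averaged. The binding signal is a within-array Z-score, averaged across arrays of the same protein sequence at different concentrations or buffers and across linkers. Negative Z-scores can be read as non-binding.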
# [2] = target: Neu5Ac(a2-3)GalNAc(b1-4)GlcNAc
# How it was run: as §1
# [3] = target: Neu5Ac(a2-3)[GalNAc(b1-4)]Gal(b1-4)Glc
# How it was run: as §1
# [4] = target: Neu5Ac(a2-3)[GalNAc(b1-4)]Gal(b1-4)GlcNAc
# How it was run: as §1
# [5] = target: Neu5Ac(a2-3)[GalNAc(b1-4)]Gal(b1-4)GlcNAc(b1-3)GalNAc
# How it was run: as §1
# [6] = target: Neu5Ac(a2-3)[Neu5Ac(a2-6)]GalNAc
# How it was run: as §1
# [7] = target: Neu5Ac(a2-6)Gal
# How it was run: as §1
# [8] = target: Neu5Ac(a2-6)Gal(b1-3)GlcNAc(b1-3)[Gal(b1-4)GlcNAc(b1-6)]Gal(b1-4)Glc
# How it was run: as §1
# [9] = target: Neu5Ac(a2-6)Gal(b1-4)Glc
# How it was run: as §1
# [10] = target: Neu5Ac(a2-6)Gal(b1-4)GlcNAc
# How it was run: as §1
# [11] = target: Neu5Ac(a2-6)Gal(b1-4)GlcNAc(b1-2)Man
# How it was run: as §1
# [12] = target: Neu5Ac(a2-6)Gal(b1-4)GlcNAc(b1-2)Man(a1-3)Man(b1-4)GlcNAc(b1-4)GlcNAc
# How it was run: as §1
# [13] = target: Neu5Ac(a2-6)Gal(b1-4)GlcNAc(b1-2)Man(a1-3)[Gal(b1-4)GlcNAc(b1-2)Man(a1-6)]Man(b1-4)GlcNAc(b1-4)GlcNAc
# How it was run: as §1
# [14] = target: Neu5Ac(a2-6)Gal(b1-4)GlcNAc(b1-2)Man(a1-3)[GlcNAc(b1-2)Man(a1-6)]Man(b1-4)GlcNAc(b1-4)GlcNAc
# How it was run: as §1
# [15] = target: Neu5Ac(a2-6)Gal(b1-4)GlcNAc(b1-2)Man(a1-3)[GlcNAc(b1-4)][Neu5Ac(a2-6)Gal(b1-4)GlcNAc(b1-2)Man(a1-6)]Man(b1-4)GlcNAc(b1-4)GlcNAc
# How it was run: as §1
# [16] = target: Neu5Ac(a2-6)Gal(b1-4)GlcNAc(b1-2)Man(a1-3)[Man(a1-6)]Man(b1-4)GlcNAc(b1-4)GlcNAc
# How it was run: as §1
# [17] = target: Neu5Ac(a2-6)Gal(b1-4)GlcNAc(b1-2)Man(a1-3)[Neu5Ac(a2-3)Gal(b1-4)GlcNAc(b1-2)Man(a1-6)]Man(b1-4)GlcNAc(b1-4)GlcNAc
# How it was run: as §1
# [18] = target: Neu5Ac(a2-6)Gal(b1-4)GlcNAc(b1-2)Man(a1-3)[Neu5Ac(a2-6)Gal(b1-4)GlcNAc(b1-2)Man(a1-6)]Man(b1-4)GlcNAc(b1-4)GlcNAc
# How it was run: as §1
# [19] = target: Neu5Ac(a2-6)Gal(b1-4)GlcNAc(b1-2)Man(a1-3)[Neu5Ac(a2-6)Gal(b1-4)GlcNAc(b1-2)Man(a1-6)]Man(b1-4)GlcNAc(b1-4)[Fuc(a1-6)]GlcNAc
# How it was run: as §1
# [20] = target: Neu5Ac(a2-6)Gal(b1-4)GlcNAc(b1-2)Man(a1-6)Man(b1-4)GlcNAc(b1-4)GlcNAc
# How it was run: as §1
# [21] = target: Neu5Ac(a2-6)Gal(b1-4)GlcNAc(b1-2)Man(a1-6)[Gal(b1-4)GlcNAc(b1-2)Man(a1-3)]Man(b1-4)GlcNAc(b1-4)GlcNAc
# How it was run: as §1
# [22] = target: Neu5Ac(a2-6)Gal(b1-4)GlcNAc(b1-2)Man(a1-6)[GlcNAc(b1-2)Man(a1-3)]Man(b1-4)GlcNAc(b1-4)GlcNAc
# How it was run: as §1
# [23] = target: Neu5Ac(a2-6)Gal(b1-4)GlcNAc(b1-2)Man(a1-6)[Man(a1-3)]Man(b1-4)GlcNAc(b1-4)GlcNAc
# How it was run: as §1
# [24] = target: Neu5Ac(a2-6)Gal(b1-4)GlcNAc(b1-2)[Neu5Ac(a2-6)Gal(b1-4)GlcNAc(b1-4)]Man(a1-3)[GlcNAc(b1-4)][Neu5Ac(a2-6)Gal(b1-4)GlcNAc(b1-2)[Neu5Ac(a2-6)Gal(b1-4)GlcNAc(b1-6)]Man(a1-6)]Man(b1-4)GlcNAc(b1-4)GlcNAc
# How it was run: as §1
# [25] = target: Neu5Ac(a2-6)Gal(b1-4)GlcNAc(b1-2)[Neu5Ac(a2-6)Gal(b1-4)GlcNAc(b1-4)]Man(a1-3)[GlcNAc(b1-4)][Neu5Ac(a2-6)Gal(b1-4)GlcNAc(b1-4)Man(a1-6)]Man(b1-4)GlcNAc(b1-4)GlcNAc
# How it was run: as §1
# [26] = target: Neu5Ac(a2-6)Gal(b1-4)GlcNAc(b1-2)[Neu5Ac(a2-6)Gal(b1-4)GlcNAc(b1-6)]Man(a1-6)[Neu5Ac(a2-6)Gal(b1-4)GlcNAc(b1-2)Man(a1-3)][GlcNAc(b1-4)]Man(b1-4)GlcNAc(b1-4)GlcNAc
# How it was run: as §1
# [27] = target: Neu5Ac(a2-6)Gal(b1-4)GlcNAc(b1-3)Gal(b1-3)GlcNAc
# How it was run: as §1
# [28] = target: Neu5Ac(a2-6)Gal(b1-4)GlcNAc(b1-3)Gal(b1-4)GlcNAc
# How it was run: as §1
# [29] = target: Neu5Ac(a2-6)Gal(b1-4)GlcNAc(b1-3)Gal(b1-4)GlcNAc(b1-2)Man(a1-3)[Neu5Ac(a2-6)Gal(b1-4)GlcNAc(b1-3)Gal(b1-4)GlcNAc(b1-2)Man(a1-6)]GalNAc
# How it was run: as §1
# [30] = target: Neu5Ac(a2-6)Gal(b1-4)GlcNAc(b1-3)Gal(b1-4)GlcNAc(b1-3)Gal(b1-4)GlcNAc
# How it was run: as §1
# [31] = target: Neu5Ac(a2-6)Gal(b1-4)GlcNAc(b1-3)Gal(b1-4)GlcNAc(b1-3)Gal(b1-4)GlcNAc(b1-2)Man(a1-3)[Neu5Ac(a2-6)Gal(b1-4)GlcNAc(b1-3)Gal(b1-4)GlcNAc(b1-3)Gal(b1-4)GlcNAc(b1-2)Man(a1-6)]GalNAc
# How it was run: as §1
# [32] = target: Neu5Ac(a2-6)Gal(b1-4)GlcNAc(b1-3)Gal(b1-4)GlcNAc(b1-3)GalNAc
# How it was run: as §1
# [33] = target: Neu5Ac(a2-6)Gal(b1-4)GlcNAc(b1-3)Gal(b1-4)GlcNAc(b1-3)[Neu5Ac(a2-6)Gal(b1-4)GlcNAc(b1-3)Gal(b1-4)GlcNAc(b1-6)]GalNAc
# How it was run: as §1
# [34] = target: Neu5Ac(a2-6)Gal(b1-4)GlcNAc(b1-3)Gal(b1-4)GlcNAc(b1-6)[Gal(b1-3)]GalNAc
# How it was run: as §1
# [35] = target: Neu5Ac(a2-6)Gal(b1-4)GlcNAc(b1-3)Gal(b1-4)[Fuc(a1-3)]GlcNAc(b1-3)Gal(b1-4)[Fuc(a1-3)]GlcNAc
# How it was run: as §1
# [36] = target: Neu5Ac(a2-6)Gal(b1-4)GlcNAc(b1-3)GalNAc
# How it was run: as §1
# [37] = target: Neu5Ac(a2-6)Gal(b1-4)GlcNAc(b1-3)[Neu5Ac(a2-6)Gal(b1-4)GlcNAc(b1-6)]GalNAc
# How it was run: as §1
binder,measurement,setting,value
SynCAM (Mus musculus) (protein) MASAVLPSGSQCAAAAAVAAAAAPPGLRLRLLLLLLSAAALIPTGDGQNLFTKDVTVIEGEVATISCQVNKSDDSVIQLLNPNRQTIYFRDFRPLKDSRFQLLNFSSSELKVSLTNVSISDEGRYFCQLYTDPPQESYTTITVLVPPRNLMIDIQKDTAVEGEEIEVNCTAMASKPATTIRWFKGNKELKGKSEVEEWSDMYTVTSQLMLKVHKEDDGVPVICQVEHPAVTGNLQTQRYLEVQYKPQVHIQMTYPLQGLTREGDAFELTCEAIGKPQPVMVTWVRVDDEMPQHAVLSGPNLFINNLNKTDNGTYRCEASNIVGKAHSDYMLYVYDPPTTIPPP,glycan array binding signal (z-score),[1],-0.47
same,glycan array binding signal (z-score),[2],-0.627
same,glycan array binding signal (z-score),[3],-0.816
same,glycan array binding signal (z-score),[4],-0.983
same,glycan array binding signal (z-score),[5],-0.017
same,glycan array binding signal (z-score),[6],-0.852
same,glycan array binding signal (z-score),[7],-0.247
same,glycan array binding signal (z-score),[8],-0.338
same,glycan array binding signal (z-score),[9],-0.264
same,glycan array binding signal (z-score),[10],-0.424
same,glycan array binding signal (z-score),[11],-0.07
same,glycan array binding signal (z-score),[12],-1.36
same,glycan array binding signal (z-score),[13],-0.518
same,glycan array binding signal (z-score),[14],-0.63
same,glycan array binding signal (z-score),[15],-1.12
same,glycan array binding signal (z-score),[16],-0.096
same,glycan array binding signal (z-score),[17],-1.12
same,glycan array binding signal (z-score),[18],-0.192
same,glycan array binding signal (z-score),[19],0.384
same,glycan array binding signal (z-score),[20],-0.665
same,glycan array binding signal (z-score),[21],1.72
same,glycan array binding signal (z-score),[22],-1.23
same,glycan array binding signal (z-score),[23],-0.088
same,glycan array binding signal (z-score),[24],0.326
same,glycan array binding signal (z-score),[25],-0.75
same,glycan array binding signal (z-score),[26],-1.1
same,glycan array binding signal (z-score),[27],-0.322
same,glycan array binding signal (z-score),[28],0.787
same,glycan array binding signal (z-score),[29],0.293
same,glycan array binding signal (z-score),[30],-1.54
same,glycan array binding signal (z-score),[31],2.42
same,glycan array binding signal (z-score),[32],-0.464
same,glycan array binding signal (z-score),[33],-0.209
same,glycan array binding signal (z-score),[34],-0.223
same,glycan array binding signal (z-score),[35],0.333
same,glycan array binding signal (z-score),[36],-0.312
same,glycan array binding signal (z-score),[37],-0.931

# Reprinted at random: 2 records from the list, in no set order.
binder,measurement,setting,value
SynCAM (Mus musculus) (protein) MASAVLPSGSQCAAAAAVAAAAAPPGLRLRLLLLLLSAAALIPTGDGQNLFTKDVTVIEGEVATISCQVNKSDDSVIQLLNPNRQTIYFRDFRPLKDSRFQLLNFSSSELKVSLTNVSISDEGRYFCQLYTDPPQESYTTITVLVPPRNLMIDIQKDTAVEGEEIEVNCTAMASKPATTIRWFKGNKELKGKSEVEEWSDMYTVTSQLMLKVHKEDDGVPVICQVEHPAVTGNLQTQRYLEVQYKPQVHIQMTYPLQGLTREGDAFELTCEAIGKPQPVMVTWVRVDDEMPQHAVLSGPNLFINNLNKTDNGTYRCEASNIVGKAHSDYMLYVYDPPTTIPPP,glycan array binding signal (z-score),[24],0.326
same,glycan array binding signal (z-score),[8],-0.338
